Assay results reported in PMC12264102.
These are yes or no findings as the source states them, for the method shown. Binding seen in cells or lysates may run through a third protein. Some results given as binding are weak or reduced against the parent protein; the word gives no strength. Sequences can lack the tags named with a protein.

Target: T1, OTUD1-FLAG (pcDNA3.1-OTUD1-FLAG) (UniProt Q5VV17)
T1 sequence: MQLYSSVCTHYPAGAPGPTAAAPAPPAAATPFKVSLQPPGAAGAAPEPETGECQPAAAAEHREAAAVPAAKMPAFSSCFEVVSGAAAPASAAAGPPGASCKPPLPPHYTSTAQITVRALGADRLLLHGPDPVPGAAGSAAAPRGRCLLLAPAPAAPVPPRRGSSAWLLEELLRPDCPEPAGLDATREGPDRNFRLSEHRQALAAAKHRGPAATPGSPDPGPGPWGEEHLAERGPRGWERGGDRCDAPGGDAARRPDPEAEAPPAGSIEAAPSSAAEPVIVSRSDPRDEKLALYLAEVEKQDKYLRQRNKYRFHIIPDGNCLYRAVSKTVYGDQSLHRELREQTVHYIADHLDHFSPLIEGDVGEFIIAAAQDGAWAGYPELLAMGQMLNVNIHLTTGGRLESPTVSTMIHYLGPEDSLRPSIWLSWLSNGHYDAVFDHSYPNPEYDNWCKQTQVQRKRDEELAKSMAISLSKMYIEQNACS
Assay: co-IP; exogenous OTUD1 and SLC25A11; sonicated cell lysate in IP lysis buffer, 3 ug antibody overnight at 4 °C, Protein A/G magnetic beads, western blot

B1: SLC25A11-HA (pcDNA3.1-SLC25A11-HA) (protein, UniProt Q02978 1-314)
chain: MAATASAGAGGIDGKPRTSPKSVKFLFGGLAGMGATVFVQPLDLVKNRMQLSGEGAKTREYKTSFHALTSILKAEGLRGIYTGLSAGLLRQATYTTTRLGIYTVLFERLTGADGTPPGFLLKAVIGMTAGATGAFVGTPAEVALIRMTADGRLPADQRRGYKNVFNALIRITREEGVLTLWRGCIPTMARAVVVNAAQLASYSQSKQFLLDSGYFSDNILCHFCASMISGLVTTAASMPVDIAKTRIQNMRMIDGKPEYKNGLDVLFKVVRYEGFFSLWKGFTPYYARLGPHTVLTFIFLEQMNKAYKRLFLSG
binding: binds
